These are yes or no findings as the source states them, for the method shown. Binding seen in cells or lysates may run through a third protein. Some binding calls cover weakened binding; strength is not graded here.
How the values were obtained:
[1] = target: HP1α, endogenous in ICCA cells (human (endogenous in human ICCA cell lines)) (UniProt P45973); test: co-IP; endogenous co-IP: wild-type ICCA cells without any specific treatment; IP buffer 20 mM Tris-HCl pH 7.4, 150 mM NaCl, 1 mM EDTA, 1% NP-40; primary antibodies and protein A + G agarose beads; western blot
[2] = target: HP1α as used in Figures S3C, 5F and S3F (human) (UniProt P45973); test: co-IP; HP1α with STAT1 (Figure S3C); the text tells neither the cells nor whether exogenous or endogenous; co-IP is the only such method in the methods
[3] = target: full-length CBX5 (HA tagged, NM_001127322.1), encoding Heterochromatin Protein 1α (human) (UniProt P45973); test: co-IP; exogenous co-IP: HEK293T cells transfected with expression vectors carrying full-length or truncated coding sequences; IP buffer 20 mM Tris-HCl pH 7.4, 150 mM NaCl, 1 mM EDTA, 1% NP-40; primary antibodies and protein A + G agarose beads; western blot

By UniProt entry, the sequences of proteins in these tests, tags left out. Where a name states a change or a piece, a line headed by the entry shows the natural chain unless it says otherwise.
UniProt P45973: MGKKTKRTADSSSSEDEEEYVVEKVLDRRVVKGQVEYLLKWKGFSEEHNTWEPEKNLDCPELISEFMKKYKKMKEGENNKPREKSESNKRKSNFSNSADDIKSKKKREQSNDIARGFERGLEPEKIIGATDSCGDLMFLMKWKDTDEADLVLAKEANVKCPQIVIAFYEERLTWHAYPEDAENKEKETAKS
UniProt Q13547: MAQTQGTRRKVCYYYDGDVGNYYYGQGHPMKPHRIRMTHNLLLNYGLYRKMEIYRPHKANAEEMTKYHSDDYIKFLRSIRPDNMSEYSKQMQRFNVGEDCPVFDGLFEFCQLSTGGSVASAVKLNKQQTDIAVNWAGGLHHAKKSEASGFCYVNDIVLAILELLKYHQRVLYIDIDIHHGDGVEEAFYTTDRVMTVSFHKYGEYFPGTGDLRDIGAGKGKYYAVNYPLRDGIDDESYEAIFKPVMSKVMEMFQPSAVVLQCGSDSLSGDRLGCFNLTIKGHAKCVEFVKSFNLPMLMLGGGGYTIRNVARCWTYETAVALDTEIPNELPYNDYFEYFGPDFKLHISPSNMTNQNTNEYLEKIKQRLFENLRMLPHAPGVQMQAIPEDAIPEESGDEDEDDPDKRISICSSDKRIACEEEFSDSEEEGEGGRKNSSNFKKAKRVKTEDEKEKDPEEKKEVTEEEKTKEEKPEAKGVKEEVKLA
UniProt P42224: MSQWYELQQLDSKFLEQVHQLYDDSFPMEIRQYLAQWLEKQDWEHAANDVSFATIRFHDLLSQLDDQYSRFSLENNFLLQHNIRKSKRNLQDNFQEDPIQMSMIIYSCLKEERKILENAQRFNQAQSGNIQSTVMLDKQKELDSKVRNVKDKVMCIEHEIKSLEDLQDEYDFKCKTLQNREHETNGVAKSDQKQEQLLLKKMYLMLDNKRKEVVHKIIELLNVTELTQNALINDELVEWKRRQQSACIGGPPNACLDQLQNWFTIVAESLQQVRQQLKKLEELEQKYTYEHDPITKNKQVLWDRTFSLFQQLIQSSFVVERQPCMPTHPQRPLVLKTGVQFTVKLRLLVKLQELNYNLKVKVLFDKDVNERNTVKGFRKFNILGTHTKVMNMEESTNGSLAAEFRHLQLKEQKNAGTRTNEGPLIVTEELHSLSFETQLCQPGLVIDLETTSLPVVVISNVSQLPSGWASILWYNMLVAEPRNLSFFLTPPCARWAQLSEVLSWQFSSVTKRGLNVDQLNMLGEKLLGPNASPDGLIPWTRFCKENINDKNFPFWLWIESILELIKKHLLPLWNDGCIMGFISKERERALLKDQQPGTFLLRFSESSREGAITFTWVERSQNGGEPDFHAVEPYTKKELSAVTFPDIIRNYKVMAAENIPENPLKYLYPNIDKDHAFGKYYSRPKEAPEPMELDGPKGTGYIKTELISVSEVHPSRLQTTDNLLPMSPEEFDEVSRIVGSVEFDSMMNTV

“HDAC1, endogenous in ICCA cells (from UniProt Q13547 1-482) (enzyme)” was tested, and the binding [1] was “binds”.

With “Signal Transducer and Activator of Transcription 1 (from UniProt P42224 1-750)” the binding [2] was “no binding”.

“full-length HDAC1 (Flag tagged, NM_004964.3) (from UniProt Q13547 1-482) (enzyme)” was tested, and the binding [3] was “binds”.

From article PMC11137995
